The structures appear in SMILES notation. Not every entry of the source has a single result; some have several. This is not the full list of results. An entry can have further records. Values given together seem to repeat one measurement (runs, samples, wells or individuals).

The chains behind the UniProt entries cited, without tags or fusion partners.
UniProt P08908, whole entry: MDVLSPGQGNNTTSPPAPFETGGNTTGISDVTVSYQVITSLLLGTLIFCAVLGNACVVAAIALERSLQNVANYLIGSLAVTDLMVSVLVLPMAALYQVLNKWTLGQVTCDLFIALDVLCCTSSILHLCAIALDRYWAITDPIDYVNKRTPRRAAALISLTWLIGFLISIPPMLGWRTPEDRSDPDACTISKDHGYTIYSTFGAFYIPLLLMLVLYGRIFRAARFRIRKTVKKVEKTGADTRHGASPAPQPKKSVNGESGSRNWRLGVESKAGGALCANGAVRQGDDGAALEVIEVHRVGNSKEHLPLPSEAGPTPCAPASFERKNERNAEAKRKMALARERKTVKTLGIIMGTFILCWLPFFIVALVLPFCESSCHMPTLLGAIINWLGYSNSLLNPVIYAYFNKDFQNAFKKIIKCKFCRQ

Experimental findings from patent US8530475B2, “Bridged aryl piperazines derivatives useful for the treatment of CNS, GI-urinary and reproductive disorders” (Janssen Pharmaceutica NV, priority 2006, dated 2013) are described below.

The assay has as its target human 5HT1A receptor (Homo sapiens, UniProt P08908). In words: Radioligand binding to the 5-HT1A receptor, [3H]8-OH-DPAT. As to conditions: Example 77; membranes of HEK293 cells, [3H]8-OH-DPAT 0.5 nM; <5 = not active at up to 10 μM. As to the method:
Frozen membranes of HEK293 cells, stably-transfected with human 5-HT1A receptor (Perkin Elmer) were thawed on ice, briefly homogenised with an Ultra Turrax homogeniser and then suspended in Tris-HCl buffer (50 mM pH 7.7) supplemented with CaCl2 (4 mM) at an appropriate pre-determined protein concentration (5-10 μg protein per incubation mixture). Together with [^3H]8-OH-DPAT (0.5 nM final concentration; Perkin Elmer, USA), the membrane suspension was added to the test compound and incubated (30 min at 37° C.) in a total volume of 400 μl. Non-specific binding was determined in the presence of Spiroxatrine (1 μM). Free radioligand was separated from the radioligand-receptor complex by means of rapid vacuum filtration over GF/B unifilter plates with a Packard Harvester Filtration Unit. Unifilter plates were washed with ice cold Tris-HCl buffer (50 mM, pH 8.0) and then dried overnight. Bound counts were measured in a Topcount Scintillation Counter in the presence of Microscint O.

For the compound `O[C@H](COc1cccc2[nH]ccc12)CN1C[C@@H]2CC=CC[C@H]1CN2c1ccc2ccccc2c1`, the “h5HT1A pIC50” value was 6.44 and 6.75.
